In patent US20250387484A1 (US Dept. of Health and Human Services, published 2025):
No constants are given. Whether binding was seen depends on the method and setting. Some results given as binding are weak or reduced against the parent protein; the word gives no strength.

Key:
[1] = molecular target: T1, cynomolgus CD25 (cynomolgus, UniProt H6WS54 22-213); experiment: SPR (legend of FIG. 1)
T1 construct: Analyte in the SPR assay; also called CD25 (sIL-2 Receptor α)
T1 sequence: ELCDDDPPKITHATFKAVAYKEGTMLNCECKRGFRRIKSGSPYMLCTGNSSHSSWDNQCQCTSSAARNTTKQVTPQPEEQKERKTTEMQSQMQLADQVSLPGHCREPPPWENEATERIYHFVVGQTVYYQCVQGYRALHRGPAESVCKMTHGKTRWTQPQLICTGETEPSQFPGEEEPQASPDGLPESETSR

[2] = molecular target: T2, human CD25 on KIT-225 cells (human, UniProt P01589 22-272); experiment: flow cytometry (FACS) on CD25-expressing KIT-225 cells, secondary antibody, MFI against antibody concentration
T2 construct: whole, on cells; also called hCD25; IL-2Rα
T2 sequence (looked up): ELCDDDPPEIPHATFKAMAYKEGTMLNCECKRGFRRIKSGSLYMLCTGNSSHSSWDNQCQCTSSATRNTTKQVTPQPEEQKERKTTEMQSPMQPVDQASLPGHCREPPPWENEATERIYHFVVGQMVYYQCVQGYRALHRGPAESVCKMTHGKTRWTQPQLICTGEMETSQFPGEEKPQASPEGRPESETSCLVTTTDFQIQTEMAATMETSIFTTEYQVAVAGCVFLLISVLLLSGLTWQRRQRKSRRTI
Description: KIT-225 cells were washed once with FACS buffer, counted, and resuspended at a concentration of 1×10⁶/mL in FACS buffer. To 5 mL (5×10⁶ total) of cells, 25 μL of viable dye (Thermo Fisher, L34974, equivalent to 1:200 dilution) was added and mixed well. After incubation at 4° C. for 30 minutes, cells were washed twice with FACS buffer (200×g, 5 minutes each). Cells were resuspended in 5 mL FACS buffer and 100 μL was added per well, followed by addition of 100 μL diluted antibody. The solution was mixed by pipetting up and down and then incubated at 4° C. for 60 minutes, after which cells were washed twice with FACS buffer (200×g, 5 minutes each). Cells were resuspended in 100 μL FACS buffer. Fifty μL of secondary antibody was diluted in 5 mL FACS buffer (equivalent to 1:100 dilution), and 100 μL was added to each well and mixed by pipetting up and down. Following incubation at 4° C. for 30 minutes, cells were washed twice with FACS buffer (200×g, 5 minutes each), and resuspended in approximately 250 μL FACS buffer. FACS analysis was performed with Attune Flow cytometer using tube reading module.

[3] = molecular target: T2, human CD25 on KIT-225 cells; experiment: FACS on CD25-expressing KIT-225 cells (legend of FIG. 2)
[4] = molecular target: T1, cynomolgus CD25; experiment: SPR (BIACORE 8K), antibody captured on a Protein A chip, cynomolgus CD25 injected as analyte at 12.5-800 nM
[5] = molecular target: T2, human CD25 on KIT-225 cells; experiment: FACS on CD25-positive KIT-225 cells
[6] = molecular target: T1, cynomolgus CD25; experiment: SPR, Biacore 8K

Measured: binding

B1: antibody 14564 (antibody, human IgG4 S228P, kappa, V domains shown)
VH: EVQLVESGGGLVQPGGSLRLSCAASGFTFSSWGMSWVRQAPGKGLELVSTINGYGDTTYYPDSVKGRFTISRDNSKNTLYLQMNSLRAEDTAVYYCARDRDYSNSYYYAHDYWGQGTLVTVSS
VL: EIVLTQSPATLSLSPGERATLSCRASSYVSFMHWLQQKPGQAPRPWIYATANLASGVPARFSGSGSGTDYTLTISSLEPEDFAVYYCQQWSSNPPAFGGGTKVEIKR
binds: all assays above
